# Test results published in patent US20020040034A1, “Methods for treating allergic asthma using descarboethoxyloratadine” (priority 1997, published 2002).
# System: spleen cells (lymphocytes)
# Experiment: cells
# Conditions: Mus musculus, Lymphocyte, 48 h, read-out: Inhibition of Concanavalin A Induced Stimulation of Lymphocytes (IC50)
smiles,measurement,value
"Clc1ccc2c(c1)CCc1cccnc1C2=C1CCNCC1 [DCL, 8-chloro-6,11-dihydro-11-(4-piperidylidene)-5H-benzo[5,6]cyclohepta[1,2-b]pyridine]",IC50,5.6 µM
